For at least one compound, name, drawing or mass did not settle the structure.
System: 4-AP induced astrocytic Ca^2+ signaling in cortex
Assay: In vivo two-photon imaging of 4-AP induced astrocytic Ca^2+ signaling
Parameters: species or system mice
Details: 450 mg/kg i.p.

## CCCC(CCC)C(=O)O [valproate]
  amplitude of neuronal discharges and astrocytic responses to 4-AP: reduced
